# Measurements as given in the supplement of paper PMC12067093, “Discovery and optimisation of a covalent ligand for TRIM25 and its application to targeted protein ubiquitination” (Chemical Science, 2025).
# This is one part of the list.
# Compound: CC1Cc2ccccc2N1C(=O)C1CCCN(C1)C(=O)CCl (mixture of isomers) [TRIM25 ligand 11 (diastereomer mixture)]
# Assay: probe-labelled cysteine peptide fold change vs DMSO (competition) (log2 fold change); higher = less target engagement (more negative = stronger competition)
# Conditions: 10 µM; THP-1; incubation time: 4 h
# 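Note: competitive chemoproteomic profiling in live THP-1 cells with an iodoacetamide desthiobiotin (IA-DTB) probe, comparing probe-labelled peptide intensities in compound-treated cells against DMSO-treated controls.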
row,Target,probe-labelled cysteine peptide fold change
1,PSMB3_P49720_19_NCVAIAADRR (UniProt P49720),0.0375
2,PSMB2_P49721_91_RNLADCLR (UniProt P49721),-0.136
3,PTGFRN_Q9P2B2_169_CTAASASPLHTHLALLWEVHR (UniProt Q9P2B2),-0.164
4,PTPRF_P10586_107_VQRDEAIYECTATNSLGEINTSAK (UniProt P10586),-0.0297
5,PSMB8_P28062_124_VIEINPYLLGTMSGCAADCQYWER (UniProt P28062),0.0314
6,PTER_Q96BW5_36_TLTHEHLAMTFDCCYCPPPPCQEAISK (UniProt Q96BW5),0.15
7,PSME3_P61289_92_LDECEEAFQGTK (UniProt P61289),-0.11
8,PSMC2_P35998_270_ACLIFFDEIDAIGGAR (UniProt P35998),0.0698
9,PTK2B_Q14289_395_RSHLSESCSIESDIYAEIPDETLR (UniProt Q14289),0.0139
10,PSMC6_P62333_228_DHQPCIIFMDEIDAIGGR (UniProt P62333),0.0984
11,PTRH2_Q9Y3E5_111_QWEYCGQPK (UniProt Q9Y3E5),-0.0453
12,PSMC3_P17980_400_AVCVEAGMIALR (UniProt P17980),-0.07
13,PTPRJ_Q12913_1039_QQADSNCGFAEEYEDLK (UniProt Q12913),0.0747
14,PSMD1_Q99460_633_TPEQCPSVVSLLSESYNPHVR (UniProt Q99460),0.0411
15,PSME3_P61289_92_RRLDECEEAFQGTK (UniProt P61289),0.0191
16,PSME1_Q06323_22_VDVFREDLCTK (UniProt Q06323),-0.0529
17,PTPRC_P08575_853_VNAFSNFFSGPIVVHCSAGVGR (UniProt P08575),0.237
18,PSMC1_P62191_399_AICTEAGLMALR (UniProt P62191),-0.00256
19,PTPN9_P43378_338_YGDVPCLDQTR (UniProt P43378),-0.123

# Taken from above:
# Entry of PSMD1_Q99460_633_TPEQCPSVVSLLSESYNPHVR (UniProt Q99460) under probe-labelled cysteine peptide fold change: 0.0411
# Entry of PSMB2_P49721_91_RNLADCLR (UniProt P49721) under probe-labelled cysteine peptide fold change: -0.136

# Additional results follow.

row,Target,probe-labelled cysteine peptide fold change
1,PTPRC_P08575_1261_QDANCVNPLGAPEKLPEAK (UniProt P08575),-0.175
2,PSMC2_P35998_389_SVCTEAGMFAIR (UniProt P35998),-0.00859
3,PSMD12_O00232_109_MVQQCCTYVEEITDLPIK (UniProt O00232),0.0201
4,PTPRC_P08575_400_TDFGSPGEPQIIFCR (UniProt P08575),0.192
5,PTRH1_Q86Y79_72_HCAADLALAPLGDAQLVLLRPR (UniProt Q86Y79),0.169
6,PSME4_Q14997_798_LQHCGDGK (UniProt Q14997),0.126
7,PUF60_Q9UHX1_129_ALAIMCR (UniProt Q9UHX1),0.156
8,PTPRF_P10586_54_VPEDQTGLSGGVASFVCQATGEPKPR (UniProt P10586),-0.002
9,PTER_Q96BW5_196_VLQATAHAQAQLGCPVIIHPGR (UniProt Q96BW5),0.172
10,PSTPIP2_Q9H939_221_ACEAFEAQECER (UniProt Q9H939),0.0835
11,PTGES3_Q15185_40_LTFSCLGGSDNFK (UniProt Q15185),0.0949
12,PTCD1_O75127_695_EADDGCALGGR (UniProt O75127),-0.117
13,PSMD6_Q15008_188_VYQGLYCVAIR (UniProt Q15008),-0.0246
14,PSMD1_Q99460_703_QGALIASALIMIQQTEITCPK (UniProt Q99460),8.6e-05
15,PSME4_Q14997_820_DDILQSLTIVHNCLIGSGNLLPPLK (UniProt Q14997),0.059
16,PSMC3_P17980_240_ACAAQTK (UniProt P17980),-0.0602
17,PSMA7_O14818_63+70_ICALDDNVCMAFAGLTADAR (UniProt O14818),-0.148
18,PSMD1_Q99460_378_NSVCHTATVIANSFMHCGTTSDQFLRDNLEWLAR (UniProt Q99460),0.0156
19,PTGES3_Q15185_20_DYVFIEFCVEDSK (UniProt Q15185),0.12
